Results taken from patent US20220074941A1, “HSP90 COMBINATION THERAPY” (Sloan-Kettering Institute for Cancer Research, priority 2011, published 2022).

What was measured:
[1] = test system: Hsp90 complexes in K562 cell extract; assay: Nano-LC-MS/MS of PU-beads pull-downs; type: binding; settings: protein identified in PU-beads pull-down of K562 extract, QSTAR-Elite QTof MS
In short: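 Proteins were identified by data-dependent nano LC-MS/MS (QTof, ESI) and Mascot searching (p<0.05), then reported as spectral counts and coverage via Scaffold. Inputs were PU-bead versus control-bead pull-downs from lysate pre-cleared with control beads overnight at 4 °C, eluted by boiling in 2% SDS.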

[2] = test system: Hsp90 complexes in Mia-PaCa-2 cell extract; assay: Nano-LC-MS/MS of PU-beads pull-downs; type: binding, human; settings: protein identified in PU-beads pull-down of Mia-Paca 2 extract; QSTAR-Elite QTof MS
In short: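 They came from PU-bead pull-downs of pre-cleared lysates (control beads, overnight, 4 °C), eluted by boiling in 2% SDS, gel-separated and run by data-dependent nano-ESI QTof MS/MS.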

B1: TYK2 (protein, UniProt P29597 1-1187, looked up)
Non-receptor tyrosine-protein …: MPLRHWGMARGSKPVGDGAQPMAAMGGLKVLLHWAGPGGGEPWVTFSESSLTAEEVCIHIAHKVGITPPCFNLFALFDAQAQVWLPPNHILEIPRDASLMLYFRIRFYFRNWHGMNPREPAVYRCGPPGTEASSDQTAQGMQLLDPASFEYLFEQGKHEFVNDVASLWELSTEEEIHHFKNESLGMAFLHLCHLALRHGIPLEEVAKKTSFKDCIPRSFRRHIRQHSALTRLRLRNVFRRFLRDFQPGRLSQQMVMVKYLATLERLAPRFGTERVPVCHLRLLAQAEGEPCYIRDSGVAPTDPGPESAAGPPTHEVLVTGTGGIQWWPVEEEVNKEEGSSGSSGRNPQASLFGKKAKAHKAVGQPADRPREPLWAYFCDFRDITHVVLKEHCVSIHRQDNKCLELSLPSRAAALSFVSLVDGYFRLTADSSHYLCHEVAPPRLVMSIRDGIHGPLLEPFVQAKLRPEDGLYLIHWSTSHPYRLILTVAQRSQAPDGMQSLRLRKFPIEQQDGAFVLEGWGRSFPSVRELGAALQGCLLRAGDDCFSLRRCCLPQPGETSNLIIMRGARASPRTLNLSQLSFHRVDQKEITQLSHLGQGTRTNVYEGRLRVEGSGDPEEGKMDDEDPLVPGRDRGQELRVVLKVLDPSHHDIALAFYETASLMSQVSHTHLAFVHGVCVRGPENIMVTEYVEHGPLDVWLRRERGHVPMAWKMVVAQQLASALSYLENKNLVHGNVCGRNILLARLGLAEGTSPFIKLSDPGVGLGALSREERVERIPWLAPECLPGGANSLSTAMDKWGFGATLLEICFDGEAPLQSRSPSEKEHFYQRQHRLPEPSCPQLATLTSQCLTYEPTQRPSFRTILRDLTRLQPHNLADVLTVNPDSPASDPTVFHKRYLKKIRDLGEGHFGKVSLYCYDPTNDGTGEMVAVKALKADCGPQHRSGWKQEIDILRTLYHEHIIKYKGCCEDQGEKSLQLVMEYVPLGSLRDYLPRHSIGLAQLLLFAQQICEGMAYLHAQHYIHRDLAARNVLLDNDRLVKIGDFGLAKAVPEGHEYYRVREDGDSPVFWYAPECLKEYKFYYASDVWSFGVTLYELLTHCDSSQSPPTKFLELIGIAQGQMTVLRLTELLERGERLPRPDKCPCEVYHLMKNCWETEASFRPTFENLIPILKTVHEKYQGQAPSVFSVC
With B1 the “Number of Assigned Spectra, K562 Prep 1” value ([1]; Prep 1) was 2, the “Number of Assigned Spectra, K562 Prep 2” value ([1]; Prep 2) was 0 and the “Number of Assigned Spectra, Mia-Paca 2” value [2] was 0.
